Laboratory results reported in publication doi:10.1101/2022.06.01.494432.
These are yes or no findings as the source states them, for the method shown. Binding seen in cells or lysates may run through a third protein. Some results given as binding are weak or reduced against the parent protein; the word gives no strength. Where a sequence is shown, tags or fusion partners need not be part of it.

Amino acid sequences for entries named in this document (tags omitted).
UniProt Q9Z0W5: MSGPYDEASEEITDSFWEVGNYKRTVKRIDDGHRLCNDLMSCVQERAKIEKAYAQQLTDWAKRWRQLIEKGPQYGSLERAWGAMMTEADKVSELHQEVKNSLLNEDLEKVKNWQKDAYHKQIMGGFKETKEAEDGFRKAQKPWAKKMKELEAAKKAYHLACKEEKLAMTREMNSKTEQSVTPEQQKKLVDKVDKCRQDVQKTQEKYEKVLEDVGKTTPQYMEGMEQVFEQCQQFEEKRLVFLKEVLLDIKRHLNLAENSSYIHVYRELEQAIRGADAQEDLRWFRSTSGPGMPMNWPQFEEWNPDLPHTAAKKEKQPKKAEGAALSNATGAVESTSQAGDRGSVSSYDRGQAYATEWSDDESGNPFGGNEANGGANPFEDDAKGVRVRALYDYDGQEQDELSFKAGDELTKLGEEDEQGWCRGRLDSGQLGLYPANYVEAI

Target: T1, GST-Dyn1xA-PRM (wild-type rat Dyn1xA C-terminus, residues 746-864) (rat) (UniProt P21575)
T1 sequence: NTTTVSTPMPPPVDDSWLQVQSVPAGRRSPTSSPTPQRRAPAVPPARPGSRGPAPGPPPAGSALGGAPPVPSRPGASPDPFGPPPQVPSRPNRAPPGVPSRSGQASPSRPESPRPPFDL
Test: pull-down

“Syndapin 1 (endogenous, rat brain nerve terminals) (from UniProt Q9Z0W5 1-441)” was tested, and the binding was “binds”.
